Here are results for seven substances from patent US20220017599A1.

The chains behind the UniProt entries cited, without tags or fusion partners.
UniProt Q8VI36: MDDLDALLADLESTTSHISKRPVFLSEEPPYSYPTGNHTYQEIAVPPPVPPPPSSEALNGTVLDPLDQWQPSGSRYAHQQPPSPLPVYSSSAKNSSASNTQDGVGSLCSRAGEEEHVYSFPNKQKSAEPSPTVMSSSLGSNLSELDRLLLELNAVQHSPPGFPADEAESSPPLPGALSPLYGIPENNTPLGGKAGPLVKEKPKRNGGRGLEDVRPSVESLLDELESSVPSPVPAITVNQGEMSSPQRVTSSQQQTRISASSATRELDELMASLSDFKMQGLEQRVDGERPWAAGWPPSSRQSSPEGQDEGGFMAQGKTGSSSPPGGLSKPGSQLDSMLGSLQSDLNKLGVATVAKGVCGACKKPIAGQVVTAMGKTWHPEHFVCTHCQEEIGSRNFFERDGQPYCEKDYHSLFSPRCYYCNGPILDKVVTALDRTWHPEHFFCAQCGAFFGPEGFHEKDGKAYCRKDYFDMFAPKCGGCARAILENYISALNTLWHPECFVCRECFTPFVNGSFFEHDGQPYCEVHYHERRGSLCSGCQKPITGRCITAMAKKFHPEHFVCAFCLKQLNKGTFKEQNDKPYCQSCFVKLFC

Residue numbers refer to the chain shown, from its start. No constants are given. Whether binding was seen depends on the method and setting. In cells and extracts the contact can be indirect. Some results given as binding are weak or reduced against the parent protein; the word gives no strength.

Assay [1] has as its target T1, α4 tail model protein (WT integrin α4 intracellular domain model protein) (UniProt Q00651).
T1 sequence (looked up): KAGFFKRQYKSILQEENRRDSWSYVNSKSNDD
In words: pull-down from T cell lysate by Ni2+ resin loaded with integrin tail model proteins, immunoblot.

Assay [2] addresses T1, α4 tail model protein (WT integrin α4 intracellular domain model protein). In words: pull-down of recombinant GST-tagged domain by Ni2+ resin loaded with α4 tail model protein.
Assay [3] shares this target. In words: pull-down of recombinant GST-tagged NTD and CTD by Ni2+ resin loaded with α4 tail model protein (figure legend).
Assay [4] addresses T2, α4 tail model protein R985A (UniProt Q00651).
T2 sequence (looked up): T1 sequence (looked up) with R18A
The experiment in a line: pull-down from T cell lysate by Ni2+ resin loaded with WT or mutant α4 tail model proteins, immunoblot. In general terms: A western blot detects proteins with antibodies after separation by electrophoresis.

The target in assay [5] is T1, α4 tail model protein (WT integrin α4 intracellular domain model protein). The assay is described as above.

Consider “murine Hsp90AB1 (from UniProt P11499 2-724)”, for which the binding result in assay [1] was “binds”.

“recombinant GST-tagged C-terminal domain of Hsp90AB1 (from UniProt P11499 557-724)”: the binding entry in assay [2] and in assay [3] was “binds” throughout. Take paxillin (from UniProt Q8VI36 1-591): the binding result in assay [4] and in assay [5] was “binds” throughout.

Consider “recombinant GST-tagged C-terminal domain of Hsp90AA1 (from UniProt P07901 566-733)”, for which the binding entry in assay [2] and in assay [3] was “binds” in each case. Turning to “recombinant GST-tagged N-terminal domain of Hsp90AA1 (from UniProt P07901 1-233)”, the binding entry in assay [2] and in assay [3] was “binds” throughout.

Turning to “recombinant GST-tagged N-terminal domain of Hsp90AB1 (from UniProt P08238 1-228)”, the binding result in assay [2] and in assay [3] was “binds” each time.

On to “murine Hsp90AA1 (from UniProt P07901 2-733)”, for which, in assay [1], the binding result was “binds”.
